Test results from paper PMC7819943, “Rice protein-binding microarrays: a tool to detect cis-acting elements near promoter regions in rice”.
Some of the results follow.

molecular target: T1, OsSMF1 (Oryza sativa, UniProt Q6ZLB0 1-436); experiment: protein-binding microarray (RPBM); PBS, 2% BSA, 51.3 ng/ul salmon testes DNA, 50 uM zinc acetate, 200 nM TF, 25 C, 1 h; high values mean tight binding; settings: protein: recombinant; tags: N-terminal polyhistidine and DsRed monomer fusion (pET32a); chain copies: 2; label: CyDye5-dUTP incorporated in the synthesized complementary strand; 3' TTTTT single-stranded linker to array surface; dsDNA, one strand shown
T1 sequence: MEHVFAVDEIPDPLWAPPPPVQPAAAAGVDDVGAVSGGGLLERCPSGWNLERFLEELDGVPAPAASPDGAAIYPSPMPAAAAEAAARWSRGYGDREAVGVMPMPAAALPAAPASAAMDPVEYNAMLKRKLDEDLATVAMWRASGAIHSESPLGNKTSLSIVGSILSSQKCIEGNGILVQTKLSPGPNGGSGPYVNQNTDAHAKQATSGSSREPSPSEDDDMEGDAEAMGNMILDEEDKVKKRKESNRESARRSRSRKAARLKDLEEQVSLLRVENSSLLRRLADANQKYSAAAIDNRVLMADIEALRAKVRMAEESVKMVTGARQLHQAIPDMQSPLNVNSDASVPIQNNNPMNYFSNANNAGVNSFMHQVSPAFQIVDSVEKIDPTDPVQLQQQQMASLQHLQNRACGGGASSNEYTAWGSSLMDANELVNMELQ
In short: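 Binding signal here means per-feature fluorescence intensity in arbitrary units. The values were read on an Axon 4000B scanner after a custom Agilent array, double-stranded by primer extension with Cy5-dUTP, was incubated with 200 nM protein at 25 °C for 1 h in PBS with 2% BSA, salmon testes DNA and 50 µM zinc acetate, then washed. The proteins were transcription factors with an N-terminal polyhistidine tag and DsRed, expressed in E. coli BL21-CodonPlus and purified on Ni–NTA.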

Question: For “CAAACTTCTCACACACACGCTGACGCCTGAGTGCTGACCGCGGAGTCACCTAGTGCAG”, which binding signal is on record?
Answer: 3330 fluorescence intensity (a.u.)

Question: With “GGTGCATGCACGCACGCACGGCATTGCAGAGCCCGTGACGCGGAGTCACCTAGTGCAG” as the sequence, how does the binding signal read?
Answer: 3790 fluorescence intensity (a.u.)

Question: With “CATCTGGCCCGTGACACGCGTGCCACCATGGCGGTTCCACCGGAGTCACCTAGTGCAG” as the sequence, how does the binding signal read?
Answer: 7090 fluorescence intensity (a.u.)

Question: How did the binding signal turn out when “TAGCCACGGCGACGGTGGAAGGGCGGCGAACTACACGTGCCGGAGTCACCTAGTGCAG” was run?
Answer: 3610 fluorescence intensity (a.u.)

Question: For “ATCTGCTTTGTGAGGCACATGAAGCTGGAGATATCTGTCACGGAGTCACCTAGTGCAG”, which binding signal is on record?
Answer: 4740 fluorescence intensity (a.u.)

Question: How did the binding signal turn out when “TCTGATTTAACTGCATTGCATTTGTGTCATTGACATGTGGCGGAGTCACCTAGTGCAG” was run?
Answer: 4280 fluorescence intensity (a.u.)

Question: For “GGCGAGCGGCAAATCCAAATCGGCACACGAGCGAGACTGCCGGAGTCACCTAGTGCAG”, which binding signal is on record?
Answer: 3410 fluorescence intensity (a.u.)

Question: How did the binding signal turn out when “ATTCTCTGTGTTTCGGATGACGTCCCATGACAATTCACTGCGGAGTCACCTAGTGCAG” was run?
Answer: 3830 fluorescence intensity (a.u.)

Question: For “TGGATGTTCGAGATTCGTCCACGTCACCATGAGTTAAATTCGGAGTCACCTAGTGCAG”, which binding signal is on record?
Answer: 11000 fluorescence intensity (a.u.)

Question: How did the binding signal turn out when “GCTTTGGCGTCTCTAAATGACACGATTATAATCAACTTACCGGAGTCACCTAGTGCAG” was run?
Answer: 3200 fluorescence intensity (a.u.)

Question: Which binding signal does the source give for “TCGTCGCCCACTGCCACCGCTGACGTCACCGCACTCTCGCCGGAGTCACCTAGTGCAG” here?
Answer: 30500 fluorescence intensity (a.u.)

Question: Which binding signal does the source give for “GCGCACGGCACAGGGGCGGCACGCGACTCCTCCCGTCCTCCGGAGTCACCTAGTGCAG” here?
Answer: 35600 fluorescence intensity (a.u.)

Question: “GCGCCGCTCATCTCCCCACCGCCCACGTGCTGCTCCTCCACGGAGTCACCTAGTGCAG” was tested. Which binding signal did it give?
Answer: 3550 fluorescence intensity (a.u.)

Question: Which binding signal does the source give for “TGGATTTTCCAGAGGCCCACGTAGACGAATCAGCTGGGACCGGAGTCACCTAGTGCAG” here?
Answer: 4930 fluorescence intensity (a.u.)

Question: Which binding signal does the source give for “ATATTTGCCAACTCATGGATGCCCATTTACCCACAACATTCGGAGTCACCTAGTGCAG” here?
Answer: 5870 fluorescence intensity (a.u.)

Question: “TACTTCATATATATGTAACCCAAAATCCCTTGTAGTATGGCGGAGTCACCTAGTGCAG” was tested. Which binding signal did it give?
Answer: 3510 fluorescence intensity (a.u.)

Question: For “TCTTGCACGACACAACTGACTTGGCCCTCATGTCAACTGTCGGAGTCACCTAGTGCAG”, which binding signal is on record?
Answer: 3300 fluorescence intensity (a.u.)

Question: With “CTCCGTTATCAAATATCGTGTCTCGTTGTCGTCATCATATCGGAGTCACCTAGTGCAG” as the sequence, how does the binding signal read?
Answer: 3800 fluorescence intensity (a.u.)

Question: Which binding signal does the source give for “CTCCGTCGTCGTCATCATCCACTCTCCTCTCCCCTGGTTTCGGAGTCACCTAGTGCAG” here?
Answer: 9770 fluorescence intensity (a.u.)

Question: How did the binding signal turn out when “TAAATGACATCGTTGCATACCTCACATTAATTCAACTACACGGAGTCACCTAGTGCAG” was run?
Answer: 11900 fluorescence intensity (a.u.)

Question: For “CTGTCTGTATTGAGATCACATGCAGTCACTACTATGACTGCGGAGTCACCTAGTGCAG”, which binding signal is on record?
Answer: 3190 fluorescence intensity (a.u.)

Question: Which binding signal does the source give for “GCACTGCTAAAAGATTACTGCAATGTTAATCCTGGAGTACCGGAGTCACCTAGTGCAG” here?
Answer: 35300 fluorescence intensity (a.u.)

Question: How did the binding signal turn out when “ATGTTTAATCAACCTCTAAATCAATAAGATTAGTCATGTACGGAGTCACCTAGTGCAG” was run?
Answer: 3950 fluorescence intensity (a.u.)

Question: For “CCCTATATAAACCGCCACGCCACGCCACGGCCACCAACTCCGGAGTCACCTAGTGCAG”, which binding signal is on record?
Answer: 6640 fluorescence intensity (a.u.)

Question: Which binding signal does the source give for “TTCCTGCTGCTTGGGCTCGTGATCGTCGTCCGTGTCCTTGCGGAGTCACCTAGTGCAG” here?
Answer: 3300 fluorescence intensity (a.u.)

Question: Which binding signal does the source give for “TAGGAGCATATGAATATATCCATTCCTGCAACATCATCATCGGAGTCACCTAGTGCAG” here?
Answer: 3360 fluorescence intensity (a.u.)

Question: With “CTAGGCCCGGTCCACGGTGGACCCAGCGGCTCACCGGCATCGGAGTCACCTAGTGCAG” as the sequence, how does the binding signal read?
Answer: 3200 fluorescence intensity (a.u.)

Question: With “CATCCACCGCAATGCTCAAGCTTCCAATGCAATTCTCTCCCGGAGTCACCTAGTGCAG” as the sequence, how does the binding signal read?
Answer: 3810 fluorescence intensity (a.u.)

Question: Which binding signal does the source give for “CGCCTTCGTCCCATCTCGACCGTCCACGTGTGGCCCATCCCGGAGTCACCTAGTGCAG” here?
Answer: 8200 fluorescence intensity (a.u.)

Question: Which binding signal does the source give for “GAAAGGGTTTGAACGTCTCTGTTCTGGCTTGTCTAAGAGACGGAGTCACCTAGTGCAG” here?
Answer: 3240 fluorescence intensity (a.u.)

Question: Which binding signal does the source give for “CCAGCTAGTATTGCACCTCGGTGTAGCGTGAGCCGTGGCCCGGAGTCACCTAGTGCAG” here?
Answer: 6470 fluorescence intensity (a.u.)

Question: How did the binding signal turn out when “AGCTCGACGCCCTCAAGCGCCTCCTCGCCCTCATCGCCCACGGAGTCACCTAGTGCAG” was run?
Answer: 5690 fluorescence intensity (a.u.)

Question: For “GAAAATCAGCTATGGTTGCTCACGTACTGAACTTGTCGTCCGGAGTCACCTAGTGCAG”, which binding signal is on record?
Answer: 3220 fluorescence intensity (a.u.)

Question: How did the binding signal turn out when “CACTGCCATAGTGTGATGAAACATTTATAAACCGTGTCATCGGAGTCACCTAGTGCAG” was run?
Answer: 3230 fluorescence intensity (a.u.)

Question: Which binding signal does the source give for “CACTAACTACAAAGCCCCTGCCCACGTATATACATCAGGCCGGAGTCACCTAGTGCAG” here?
Answer: 4370 fluorescence intensity (a.u.)

Question: “TTGTTCTAAGCTCTAGCCGCTGCCGTCGTGGCGTAGAGAGCGGAGTCACCTAGTGCAG” was tested. Which binding signal did it give?
Answer: 3480 fluorescence intensity (a.u.)

Question: For “GCTACGGGCTTGACTGTTGCAATCAATCTTTTGTCTGTTGCGGAGTCACCTAGTGCAG”, which binding signal is on record?
Answer: 3180 fluorescence intensity (a.u.)

Question: How did the binding signal turn out when “ACGCATCCACGTCACTGATGTCCGGGCCCCGCTTAGATGTCGGAGTCACCTAGTGCAG” was run?
Answer: 18000 fluorescence intensity (a.u.)

Question: How did the binding signal turn out when “TACTCCGTACATGTGTTCAAATGTTCGATGTGACGGGGCACGGAGTCACCTAGTGCAG” was run?
Answer: 4390 fluorescence intensity (a.u.)

Question: Which binding signal does the source give for “GGAACATTGTTTTGAGATGGTTCAGACTTCAGAGAATAATCGGAGTCACCTAGTGCAG” here?
Answer: 27100 fluorescence intensity (a.u.)

Question: For “TCCAACTTGGGGAGGGAGGGCCGTTTCAGCTCGGGCTTTTCGGAGTCACCTAGTGCAG”, which binding signal is on record?
Answer: 3750 fluorescence intensity (a.u.)

Question: Which binding signal does the source give for “CAACAGTGCTGGCTTCTGCATGTAGACGTGTTCACTCACACGGAGTCACCTAGTGCAG” here?
Answer: 4410 fluorescence intensity (a.u.)
